# Source: the supplement of paper PMC8256030
# Values joined by “and” are separate entries in the source; they are usually repeats but may differ in a detail not shown here. Identical values can stand only once. Some of the results follow. Repeats in this data set agree poorly, so a single value says little.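 HEK293T cells were given each compound shortly before transfection with a reporter in which red mCherry is followed by the SARS-CoV-2 frameshift element and then GFP in the −1 frame, so GFP appears only after frameshifting.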
# Test system: HEK293T
# Assay: percent viability (nuclei count) relative to control; higher = more viable cells
# Conditions: 10 µM; 24 h
row,SMILES,percent viability
1,CCCC(CCC)C(N)=O [valpromide],91.8%
2,O=C(O)CNC(=O)CNC(=O)CNC(=O)CSC(=O)c1ccccc1 [betiatide],70.8%
3,CN(c1nccc(=O)[nH]1)C1CCN(c2nc3ccccc3n2Cc2ccc(F)cc2)CC1 [mizolastine],149%
4,CCN1C(=O)NC(c2ccccc2)C1=O (stereo not given) [ethotoin],164%
5,CCc1nn(CCCN2CCN(c3cccc(Cl)c3)CC2)c(=O)n1CCOc1ccccc1,126%
6,COc1ccc(CC(C)(C)NC[C@H](O)c2cc(O)cc3c2OCC(=O)N3)cc1 [Olodaterol],147% and 292%
7,CO/N=C/C1=CCCN(C)C1 [milameline],115%
8,CN(C)[C@@H]1C(=O)C(C(N)=O)=C(O)[C@@]2(O)C(=O)C3=C(O)c4c(O)ccc([N+](=O)[O-])c4C[C@H]3C[C@@H]12 [nitrocycline],126%
9,COC1=CC(=O)C[C@@H](C)[C@]12Oc1c(Cl)c(OC)cc(OC)c1C2=O,168%
10,CC(CN(C)C)CN1c2ccccc2Sc2ccccc21 (stereo not given) [alimemazine],198%
11,CCCOc1ccc(S(=O)(=O)NCCC2CCCN2C)cc1-c1nc2c(CCC)nn(C)c2c(=O)[nH]1 (stereo not given) [udenafil],334%
12,CCC(C(=O)NC(N)=O)c1ccccc1 (stereo not given) [pheneturide],207%
13,O=C1CCCC(=O)C1C(=O)c1ccc(C(F)(F)F)cc1[N+](=O)[O-] [nitisinone],117%
14,O=C(O)[C@@H](S)[C@@H](S)C(=O)O [succimer],151%
15,NC(=O)c1ccc(F)c2c1C[C@@H](N(C1CCC1)C1CCC1)CO2 [robalzotan],116%
16,COC(F)(F)C(Cl)Cl [methoxyflurane],216%
17,CC(C)OC(=O)[C@@H]1CC2=CC(=O)CC[C@]2(C)[C@H]2CC[C@@]3(C)[C@@H](CC[C@@]34CCC(=O)O4)[C@H]12 [dicirenone],126%
18,C=C1CC[C@H](O)C/C1=C/C=C1\CCC[C@]2(C)[C@@H]([C@H](C)CCCC(C)C)CC[C@@H]12 [colecalciferol],169% and 247%
19,COC(=O)Nc1nc2cc([S+]([O-])c3ccccc3)ccc2[nH]1 (stereo not given),296%
20,CCCc1cc(=O)[nH]c(=S)[nH]1,175%

row,SMILES,percent viability
1,O=c1nc2cccccc-2n1Cc1ccccc1 [benhepazone],154%
2,CC(C)=C/C(C)=N/Nc1nncc2ccccc12 [budralazine],402%
3,Cn1c2ncnc-2c(O)n(C)c1=O [choline theophyllinate],71.7%
4,CC(Oc1c(Cl)cccc1Cl)C1=NCCN1 (stereo not given),68.5%
5,CO/N=C(\C(=O)N[C@@H]1C(=O)N2C(C(=O)OC(C)OC(C)=O)=C(COC(N)=O)CS[C@H]12)c1ccco1 (stereo not given in full),240%
6,CN1CCN(c2c(F)cc3c(=O)c(C(=O)O)cn4c3c2OCN4C)CC1 [marbofloxacin],191%
7,CC[C@H](C)C(=O)O[C@H]1C[C@H](O)C=C2C=C[C@H](C)[C@H](CC[C@@H](O)C[C@@H](O)CC(=O)O)[C@H]21,298%
8,O=C(O)c1cc(-c2ccc(F)cc2F)ccc1O [diflunisal],209% and 166%
9,Cc1cccc(C)c1NC(=O)c1ccccc1C(=O)O [ftaxilide],30.2%
10,CC(=O)Nc1ccccc1,158%
11,O=C1CN(/N=C/c2ccc(-c3ccc(Cl)c(Cl)c3)o2)C(=O)N1 [clodanolene],301%
12,CN(CCCN1c2ccccc2CCc2ccccc21)CC(=O)c1ccc(Cl)cc1 [lofepramine],284%
13,C=COCC(F)(F)F [fluroxene],180%
14,CC(C)(C)NCC(O)c1cc(O)cc(O)c1 (stereo not given) [terbutaline],159%
15,CCOC(=O)C1=C[C@]2(CC)CCCN3CCc4c(n1c1ccccc41)[C@@H]32,114%
16,CC(Oc1ccccc1)C(=O)N[C@@H]1C(=O)N2[C@@H]1SC(C)(C)[C@@H]2C(=O)O (stereo not given in full) [pheneticillin],288%
17,O[C@@H]1CO[C@H]2[C@@H]1OC[C@@H]2O [isosorbide],52.9%
18,CC(C)(C)NC(=O)[C@@H]1C[C@@H]2CCCC[C@@H]2CN1C[C@@H](O)[C@H](Cc1ccccc1)NC(=O)[C@H](CC(N)=O)NC(=O)c1ccc2ccccc2n1 [Invirase],353%
19,CC(C)(C)NCC(O)COc1cccc2c1C[C@H](O)[C@H](O)C2 (stereo not given in full),254%
20,CC1(NC2=NS(=O)(=O)c3sc(Cl)cc3N2)CC1,155%
